Data as given in patent publication US20110269141A1, “TARGET PROTEIN AND TARGET GENE FOR DRUG DISCOVERY, AND SCREENING METHOD” (REVERSE PROTEOMICS RESEARCH INSTITUTE CO., LTD., priority 2007, published 2011).

Chains of the proteins cited; added tags and fusions are not shown. Lines headed by an entry give the natural chain unless they say otherwise; changes in a name come on top.
UniProt O15355: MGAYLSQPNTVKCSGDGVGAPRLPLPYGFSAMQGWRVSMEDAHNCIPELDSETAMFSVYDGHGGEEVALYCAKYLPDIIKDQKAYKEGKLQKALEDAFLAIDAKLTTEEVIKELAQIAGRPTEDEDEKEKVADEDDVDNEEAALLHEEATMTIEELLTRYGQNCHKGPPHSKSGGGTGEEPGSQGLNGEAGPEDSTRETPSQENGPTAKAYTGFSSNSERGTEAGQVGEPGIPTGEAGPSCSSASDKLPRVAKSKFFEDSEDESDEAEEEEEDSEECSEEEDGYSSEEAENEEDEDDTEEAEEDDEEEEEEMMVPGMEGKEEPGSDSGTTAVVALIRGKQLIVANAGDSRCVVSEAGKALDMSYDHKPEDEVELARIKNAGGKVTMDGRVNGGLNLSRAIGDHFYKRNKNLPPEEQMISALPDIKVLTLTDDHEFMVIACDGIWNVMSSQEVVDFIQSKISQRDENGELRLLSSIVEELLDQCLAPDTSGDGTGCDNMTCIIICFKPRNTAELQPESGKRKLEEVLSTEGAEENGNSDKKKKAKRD

How the values were obtained:
Test in all cases: SEC-MS interaction analysis
Format in all cases: binding
FLJ45688 (SEQ ID NO:23) = target: T1, FLJ45688 (SEQ ID NO:23) (Homo sapiens, UniProt O15355, DEL20-36/V37F)
T1 construct: proteins expressed from human full-length cDNA clones; His tag (N); made in house; host or cells: Escherichia coli BL21star(DE3)pLysS (pDEST17)
T1 sequence (O15355 with tags, fused parts or gaps DEL20-36/V37F): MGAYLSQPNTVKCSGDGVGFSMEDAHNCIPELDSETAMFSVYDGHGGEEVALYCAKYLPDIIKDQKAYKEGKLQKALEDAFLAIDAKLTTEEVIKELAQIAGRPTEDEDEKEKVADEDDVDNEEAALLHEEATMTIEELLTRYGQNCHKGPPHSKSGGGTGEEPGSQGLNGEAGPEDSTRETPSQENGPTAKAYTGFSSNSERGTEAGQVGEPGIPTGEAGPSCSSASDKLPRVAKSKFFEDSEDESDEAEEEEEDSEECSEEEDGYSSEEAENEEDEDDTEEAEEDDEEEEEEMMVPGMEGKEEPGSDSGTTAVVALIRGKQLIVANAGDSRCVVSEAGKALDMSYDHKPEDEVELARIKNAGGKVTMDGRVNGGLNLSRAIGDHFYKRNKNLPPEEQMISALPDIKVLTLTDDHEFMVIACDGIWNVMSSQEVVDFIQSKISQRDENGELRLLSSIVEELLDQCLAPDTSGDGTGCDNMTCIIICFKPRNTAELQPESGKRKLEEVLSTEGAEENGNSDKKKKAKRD

[1] = target: T2, protein of SEQ ID NO:61 (FLJ No. in Table 1-8) (Homo sapiens, UniProt A1Z1Q3)
T2 construct: A human full-length cDNA clone was expressed as a protein with an N-terminal His tag; His tag (N); made in house; host or cells: Escherichia coli BL21star(DE3)pLysS
T2 sequence (A1Z1Q3 236-425): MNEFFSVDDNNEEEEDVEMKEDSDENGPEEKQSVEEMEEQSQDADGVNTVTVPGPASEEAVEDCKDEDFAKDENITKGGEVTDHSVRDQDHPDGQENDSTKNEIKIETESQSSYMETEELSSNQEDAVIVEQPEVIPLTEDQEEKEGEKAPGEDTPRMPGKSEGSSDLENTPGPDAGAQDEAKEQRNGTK

FLJ16517 (SEQ ID NO:54) = target: T3, FLJ16517 (SEQ ID NO:54) (Homo sapiens, UniProt Q6ZN17)
T3 construct: A human full-length cDNA clone was expressed as a protein with an N-terminal His tag; His tag (N); made in house; host or cells: Escherichia coli BL21star(DE3)pLysS
T3 sequence (Q6ZN17 1-250): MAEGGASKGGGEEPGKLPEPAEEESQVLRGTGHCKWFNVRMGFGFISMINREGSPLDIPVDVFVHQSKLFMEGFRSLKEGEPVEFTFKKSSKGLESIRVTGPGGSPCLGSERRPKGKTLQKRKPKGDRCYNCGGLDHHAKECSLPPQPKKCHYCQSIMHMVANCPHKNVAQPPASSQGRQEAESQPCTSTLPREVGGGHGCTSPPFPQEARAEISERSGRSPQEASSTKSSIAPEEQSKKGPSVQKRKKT

`CC(C)(C)CC(C)(C)c1ccc(OCCOCC[N+](C)(C)Cc2ccccc2)cc1` [benzethonium] was tested. Which “compound signal in measured mass range (SEC-MS)” value (from here on “compound signal”) (FLJ45688 (SEQ ID NO:23); Minerals (+), protein 0 uM, compound 1 uM) did it give?
The value was −0.1.

What about the “compound signal” value (FLJ45688 (SEQ ID NO:23); Minerals (+), protein 0 uM, compound 10 uM) of the same compound?
Its value is −0.1.

And the “compound signal” value (FLJ45688 (SEQ ID NO:23); Minerals (+), protein 0 uM, compound 100 uM)?
Its value is 0.8.

What about the “compound signal” value (FLJ45688 (SEQ ID NO:23); Minerals (+), protein 0 uM, compound 250 uM) of the same compound?
Its value is 12.4.

What about the “compound signal” value (FLJ45688 (SEQ ID NO:23); Minerals (+), protein 23.8 uM, compound 1 uM) of the same compound?
The value was 0.1.

And the “compound signal” value (FLJ45688 (SEQ ID NO:23); Minerals (+), protein 23.8 uM, compound 10 uM)?
The value was 1.2.

What about the “compound signal” value (FLJ45688 (SEQ ID NO:23); Minerals (+), protein 23.8 uM, compound 100 uM) of the same compound?
Its value is 22.1.

And the “compound signal” value (FLJ45688 (SEQ ID NO:23); Minerals (+), protein 23.8 uM, compound 250 uM)?
Its value is 57.6.

What about the “compound signal” value (FLJ45688 (SEQ ID NO:23); Minerals (−), protein 0 uM, compound 1 uM) of the same compound?
Its value is 0.0.

What about the “compound signal” value (FLJ45688 (SEQ ID NO:23); Minerals (−), protein 0 uM, compound 10 uM) of the same compound?
Its value is 0.0.

What about the “compound signal” value (FLJ45688 (SEQ ID NO:23); Minerals (−), protein 0 uM, compound 100 uM) of the same compound?
Its value is 0.0.

What about the “compound signal” value (FLJ45688 (SEQ ID NO:23); Minerals (−), protein 0 uM, compound 250 uM) of the same compound?
Its value is 0.4.

What about the “compound signal” value (FLJ45688 (SEQ ID NO:23); Minerals (−), protein 23.8 uM, compound 1 uM) of the same compound?
The value was 0.0.

And the “compound signal” value (FLJ45688 (SEQ ID NO:23); Minerals (−), protein 23.8 uM, compound 10 uM)?
Its value is 0.6.

And the “compound signal” value (FLJ45688 (SEQ ID NO:23); Minerals (−), protein 23.8 uM, compound 100 uM)?
The value was 19.4.

And the “compound signal” value (FLJ45688 (SEQ ID NO:23); Minerals (−), protein 23.8 uM, compound 250 uM)?
The value was 41.9.

What about the “SEC-MS signal of compound in measured mass range” value (shortened to “SEC-MS signal of compound”) ([1]; protein 0 uM, compound 1 uM, Minerals (+)) of the same compound?
Its value is 0.0.

What about the “SEC-MS signal of compound” value ([1]; protein 0 uM, compound 1 uM, Minerals (−)) of the same compound?
The value was 0.0.

What about the “SEC-MS signal of compound” value ([1]; protein 0 uM, compound 10 uM, Minerals (+)) of the same compound?
Its value is 0.0.

What about the “SEC-MS signal of compound” value ([1]; protein 0 uM, compound 10 uM, Minerals (−)) of the same compound?
The value was 0.0.

And the “SEC-MS signal of compound” value ([1]; protein 0 uM, compound 100 uM, Minerals (+))?
The value was 0.1.

And the “SEC-MS signal of compound” value ([1]; protein 0 uM, compound 100 uM, Minerals (−))?
Its value is 1.5.

And the “SEC-MS signal of compound” value ([1]; protein 0 uM, compound 250 uM, Minerals (+))?
The value was 1.2.

And the “SEC-MS signal of compound” value ([1]; protein 0 uM, compound 250 uM, Minerals (−))?
The value was 3.0.

And the “SEC-MS signal of compound” value ([1]; protein 23.8 uM, compound 1 uM, Minerals (+))?
The value was 0.0.

And the “SEC-MS signal of compound” value ([1]; protein 23.8 uM, compound 1 uM, Minerals (−))?
The value was 0.0.

What about the “SEC-MS signal of compound” value ([1]; protein 23.8 uM, compound 10 uM, Minerals (+)) of the same compound?
Its value is 0.0.

And the “SEC-MS signal of compound” value ([1]; protein 23.8 uM, compound 10 uM, Minerals (−))?
Its value is 0.0.

And the “SEC-MS signal of compound” value ([1]; protein 23.8 uM, compound 100 uM, Minerals (+))?
Its value is 1.2.

What about the “SEC-MS signal of compound” value ([1]; protein 23.8 uM, compound 100 uM, Minerals (−)) of the same compound?
Its value is 0.6.

And the “SEC-MS signal of compound” value ([1]; protein 23.8 uM, compound 250 uM, Minerals (+))?
The value was 2.7.

What about the “SEC-MS signal of compound” value ([1]; protein 23.8 uM, compound 250 uM, Minerals (−)) of the same compound?
The value was 29.5.

What about the “SEC-MS signal of compound” value ([1]; protein 47.5 uM, compound 1 uM, Minerals (+)) of the same compound?
Its value is 0.0.

What about the “SEC-MS signal of compound” value ([1]; protein 47.5 uM, compound 1 uM, Minerals (−)) of the same compound?
Its value is 0.0.

And the “SEC-MS signal of compound” value ([1]; protein 47.5 uM, compound 10 uM, Minerals (+))?
Its value is 0.0.

What about the “SEC-MS signal of compound” value ([1]; protein 47.5 uM, compound 10 uM, Minerals (−)) of the same compound?
Its value is 0.0.

What about the “SEC-MS signal of compound” value ([1]; protein 47.5 uM, compound 100 uM, Minerals (+)) of the same compound?
The value was 0.7.

What about the “SEC-MS signal of compound” value ([1]; protein 47.5 uM, compound 100 uM, Minerals (−)) of the same compound?
Its value is 8.1.

What about the “SEC-MS signal of compound” value ([1]; protein 47.5 uM, compound 250 uM, Minerals (+)) of the same compound?
The value was 5.3.

What about the “SEC-MS signal of compound” value ([1]; protein 47.5 uM, compound 250 uM, Minerals (−)) of the same compound?
The value was 26.3.

What about the “binding bioactive substance discovered for the target protein (listed as binder)” value ([1]; protein FLJ43911, SEQ ID NO:61) of the same compound?
The value was “benzethonium”.

Which “SEC-MS spectral intensity of compound” value (FLJ16517 (SEQ ID NO:54); Minerals (+), compound 1 uM, protein 0 uM) does the source give for `CC(C)(C)c1ccc(C(=O)CCCN2CCC(OC(c3ccccc3)c3ccccc3)CC2)cc1` [ebastine] here?
The value was −0.1.

What about the “SEC-MS spectral intensity of compound” value (FLJ16517 (SEQ ID NO:54); Minerals (+), compound 1 uM, protein 23.8 uM) of the same compound?
The value was 0.0.

And the “SEC-MS spectral intensity of compound” value (FLJ16517 (SEQ ID NO:54); Minerals (+), compound 1 uM, protein 47.5 uM)?
The value was 0.0.

What about the “SEC-MS spectral intensity of compound” value (FLJ16517 (SEQ ID NO:54); Minerals (+), compound 10 uM, protein 0 uM) of the same compound?
Its value is −0.1.

And the “SEC-MS spectral intensity of compound” value (FLJ16517 (SEQ ID NO:54); Minerals (+), compound 10 uM, protein 23.8 uM)?
Its value is 0.0.

What about the “SEC-MS spectral intensity of compound” value (FLJ16517 (SEQ ID NO:54); Minerals (+), compound 10 uM, protein 47.5 uM) of the same compound?
Its value is 0.1.

What about the “SEC-MS spectral intensity of compound” value (FLJ16517 (SEQ ID NO:54); Minerals (+), compound 100 uM, protein 0 uM) of the same compound?
Its value is −0.1.

And the “SEC-MS spectral intensity of compound” value (FLJ16517 (SEQ ID NO:54); Minerals (+), compound 100 uM, protein 23.8 uM)?
The value was 1.0.

What about the “SEC-MS spectral intensity of compound” value (FLJ16517 (SEQ ID NO:54); Minerals (+), compound 100 uM, protein 47.5 uM) of the same compound?
Its value is 0.7.

What about the “SEC-MS spectral intensity of compound” value (FLJ16517 (SEQ ID NO:54); Minerals (+), compound 250 uM, protein 0 uM) of the same compound?
Its value is 0.0.

What about the “SEC-MS spectral intensity of compound” value (FLJ16517 (SEQ ID NO:54); Minerals (+), compound 250 uM, protein 23.8 uM) of the same compound?
The value was 18.4.

And the “SEC-MS spectral intensity of compound” value (FLJ16517 (SEQ ID NO:54); Minerals (+), compound 250 uM, protein 47.5 uM)?
The value was 12.8.

What about the “SEC-MS spectral intensity of compound” value (FLJ16517 (SEQ ID NO:54); Minerals (−), compound 1 uM, protein 0 uM) of the same compound?
Its value is 0.0.

And the “SEC-MS spectral intensity of compound” value (FLJ16517 (SEQ ID NO:54); Minerals (−), compound 1 uM, protein 23.8 uM)?
The value was 0.0.

And the “SEC-MS spectral intensity of compound” value (FLJ16517 (SEQ ID NO:54); Minerals (−), compound 1 uM, protein 47.5 uM)?
Its value is 0.0.

What about the “SEC-MS spectral intensity of compound” value (FLJ16517 (SEQ ID NO:54); Minerals (−), compound 10 uM, protein 0 uM) of the same compound?
The value was 0.0.

What about the “SEC-MS spectral intensity of compound” value (FLJ16517 (SEQ ID NO:54); Minerals (−), compound 10 uM, protein 23.8 uM) of the same compound?
Its value is 0.0.

What about the “SEC-MS spectral intensity of compound” value (FLJ16517 (SEQ ID NO:54); Minerals (−), compound 10 uM, protein 47.5 uM) of the same compound?
Its value is 0.0.

And the “SEC-MS spectral intensity of compound” value (FLJ16517 (SEQ ID NO:54); Minerals (−), compound 100 uM, protein 0 uM)?
The value was 0.0.

What about the “SEC-MS spectral intensity of compound” value (FLJ16517 (SEQ ID NO:54); Minerals (−), compound 100 uM, protein 23.8 uM) of the same compound?
The value was 1.3.

And the “SEC-MS spectral intensity of compound” value (FLJ16517 (SEQ ID NO:54); Minerals (−), compound 100 uM, protein 47.5 uM)?
The value was 1.0.

And the “SEC-MS spectral intensity of compound” value (FLJ16517 (SEQ ID NO:54); Minerals (−), compound 250 uM, protein 0 uM)?
Its value is 0.1.

And the “SEC-MS spectral intensity of compound” value (FLJ16517 (SEQ ID NO:54); Minerals (−), compound 250 uM, protein 23.8 uM)?
The value was 9.2.

What about the “SEC-MS spectral intensity of compound” value (FLJ16517 (SEQ ID NO:54); Minerals (−), compound 250 uM, protein 47.5 uM) of the same compound?
Its value is 11.8.
